PubChem BioAssay AID743456 | Peter MacCallum Cancer Centre – 2014

Purpose: 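Identify miRNAs tied to vorinostat resistance or sensitivity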 (primary screen)
Cell system: human HCT116-VR colon cancer cells, a vorinostat-resistant HCT116 line
Reagent: miRNA mimic
Duration: about 3 days from transfection to readout; drug present for the last 24 h
Conditions: vorinostat at 2.5 µM final for 24 h
Detection: 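Per-well live-cell protease fluorescence and caspase luminescence under 2.5 µM vorinostat for 24 h, scored as robust z-scores and against mock transfection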
Reading the numbers: viability robust z-score and viability vs mock transfection: higher = more viable cells; caspase robust z-score: higher = more caspase activity, more apoptosis
Call rule: 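Active when viability drops or caspase activity climbs beyond robust z thresholds, with wells of poor cell health excluded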
Here is an unselected part of 878 deposited reagents. 27 of all reagents (3.1%) were called active. 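27 mimics are marked active, unlike an earlier stated count of 24; the viability threshold is described inconsistently.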 Not stated in the record: the amount of reagent.

no.	miRNA	viability robust z-score	caspase robust z-score	viability hit class	caspase hit class	viability vs mock transfection	Call
1	hsa-miR-1185	-0.24	0.54	no change	no change	0.76	inactive
2	hsa-miR-876-5p	-0.32	-0.15	no change	no change	0.74	inactive
3	hsa-miR-339-3p	-0.2	4.15	no change	no change	0.72	inactive
4	hsa-miR-320d	0.15	0.6	no change	no change	0.82	inactive
5	hsa-miR-9*	0.64	0.53	no change	no change	0.88	inactive
6	hsa-miR-592	-0.2	-0.44	no change	no change	0.76	inactive
7	hsa-miR-488*	0.72	-0.67	no change	no change	0.91	inactive
8	hsa-miR-370	1.3	-0.78	no change	no change	1.01	inactive
9	hsa-miR-136*	-0.26	0.73	no change	no change	0.74	inactive
10	hsa-miR-192*	-0.3	-0.68	no change	no change	0.75	inactive
11	hsa-miR-497	-2.2	2.16	no change	no change	0.36	inactive
12	hsa-miR-34a*	-1.34	-0.12	no change	no change	0.59	inactive
13	hsa-miR-519e*	-0.49	2.19	no change	no change	0.71	inactive
14	hsa-miR-10a*	-0.21	-0.56	no change	no change	0.76	inactive
15	hsa-miR-19b	0.16	2	no change	no change	0.77	inactive
16	hsa-miR-1322	0.24	0.34	no change	no change	0.82	inactive
17	hsa-miR-374b	0.98	-0.47	no change	no change	0.96	inactive
18	hsa-miR-26b	0.09	-0.92	no change	no change	0.8	inactive
19	hsa-miR-1257	-0.27	0.44	no change	no change	0.7	inactive
20	hsa-miR-133b	-0.71	2.69	no change	no change	0.68	inactive
21	hsa-miR-337-5p	-0.11	0.29	no change	no change	0.77	inactive
22	hsa-miR-29c*	0.2	0.84	no change	no change	0.82	inactive
23	hsa-miR-96	-0.46	2.04	no change	no change	0.67	inactive
24	hsa-miR-766	-3.14	0.54	reduced viability	no change	0.32	active
25	hsa-miR-449b*	-0.22	2.18	no change	no change	0.71	inactive
26	hsa-miR-873	1	-0.63	no change	no change	0.96	inactive
27	hsa-miR-513b	0.07	-0.6	no change	no change	0.76	inactive
28	hsa-miR-1225-3p	0.23	-0.46	no change	no change	0.83	inactive
29	hsa-miR-328	0.29	1.53	no change	no change	0.83	inactive
30	hsa-miR-216b	1.18	-0.24	no change	no change	0.99	inactive
31	hsa-miR-300	0.2	-0.88	no change	no change	0.82	inactive
32	hsa-miR-518e	0.52	2.36	no change	no change	0.84	inactive
33	hsa-miR-1244	-0.24	0.05	no change	no change	0.71	inactive
34	hsa-miR-361-3p	0.03	-0.32	no change	no change	0.76	inactive
35	hsa-miR-519c-3p	0.88	2.67	no change	no change	0.94	inactive
36	hsa-miR-1248	0.12	0.26	no change	no change	0.81	inactive
37	hsa-miR-1915	1.14	-0.44	no change	no change	0.98	inactive
38	hsa-miR-651	-0.2	-0.34	no change	no change	0.71	inactive
39	hsa-miR-221*	-1.81	0.8	no change	no change	0.52	inactive
40	hsa-miR-135b*	-1.11	4	no change	no change	0.55	inactive
41	hsa-miR-452*	-0.78	-0.89	no change	no change	0.62	inactive
42	hsa-miR-1204	-0.9	2.2	no change	no change	0.64	inactive
43	hsa-miR-498	0.01	0.88	no change	no change	0.79	inactive
44	hsa-miR-1911*	1.18	-0.42	no change	no change	0.96	inactive
45	hsa-let-7c	-0.17	0.4	no change	no change	0.76	inactive
46	hsa-miR-148b	1.65	0.52	no change	no change	1.07	inactive
47	hsa-miR-202*	1.36	-0.3	no change	no change	0.99	inactive
48	hsa-miR-148a*	0.06	1.58	no change	no change	0.8	inactive
49	hsa-miR-107	0.48	-0.18	no change	no change	0.84	inactive
50	hsa-miR-183	0.1	-0.98	no change	no change	0.81	inactive
